Consider three compounds from patent EP3092214B1, “NITROSAMINE/NITRITE INHIBITION IN TERTIARY ALKYLAMINE OXIDE COMPOSITIONS” (EOC Surfactants N.V., priority 2014, dated 2015).

The data set is described as follows: Synthesis tests of cocamidopropylamine oxide with candidate inhibitors: amido-amine residual content by UV-HPLC. Particulars: additive 0,1% by weight on amido-amine.

For `O=C(O)CN(CCN(CC(=O)O)CC(=O)O)CCN(CC(=O)O)CC(=O)O` [DTPA Na, diethylene triamine pentaacetic acid], the Content of amido-amine (Temp 70 °C) is given as 0,16%.
For `O=P(O)(O)CN(CCN(CP(=O)(O)O)CP(=O)(O)O)CCN(CP(=O)(O)O)CP(=O)(O)O` [DTPMP, diethylenetriamine penta(methylene phosphonic acid)], the Content of amido-amine is on record as 0,29% (Temp 50 °C) and 0,14% (Temp 70 °C).
As to `O=C(O)CN(CCN(CC(=O)O)CC(=O)O)CC(=O)O` [EDTA, ethylenediaminetetraacetic acid], the Content of amido-amine by setting is: (Temp 50 °C) 0,30%; (Temp 70 °C) 0,23%.
